We go through one substance from PMC3511562.

By UniProt entry, the sequences of proteins in these tests, tags left out. Residues count along the entry.
UniProt P22646, residues 22-189: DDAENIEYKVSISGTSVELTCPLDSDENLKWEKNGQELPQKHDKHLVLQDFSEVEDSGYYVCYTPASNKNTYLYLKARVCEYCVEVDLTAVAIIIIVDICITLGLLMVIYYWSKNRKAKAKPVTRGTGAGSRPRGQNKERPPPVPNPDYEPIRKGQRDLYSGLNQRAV

The target in the assay is T1, SUC2::CD3δ::Cub-LexAVP16 fusion protein (mouse) (UniProt P04235).
T1 sequence: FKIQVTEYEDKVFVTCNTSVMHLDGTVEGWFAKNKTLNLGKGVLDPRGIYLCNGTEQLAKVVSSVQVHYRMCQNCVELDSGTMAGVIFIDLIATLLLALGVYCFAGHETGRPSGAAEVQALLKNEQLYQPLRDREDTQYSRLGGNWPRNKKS
Briefly: two-hybrid; split-ubiquitin membrane yeast two-hybrid, directed tests; CD3δ-Cub bait with defined NubG preys (TCR subunits, controls); growth on Leu-,His-,Trp- and Leu-,His-,Trp-,Ade- plates; + is >100 colonies, +/− is <10 colonies.

Results are given in words; binding and its absence hold for the method and conditions named. Some entries that bind do so weakly or less than the wild type. Sequences can lack the tags named with a protein.

Take “CD3ε fused to the N-terminal domain of ubiquitin (from UniProt P22646 22-189)”: the binding result is given as “binds”.
